One data set deals with HepaRG cells. In words: Neutral lipids with Nile red in HepaRG cells. As to conditions: 4 days. On the procedure: Briefly, HepaRG cells were seeded in 96-well plates at a density of 2.6 × 10^4 cells/cm^2 and were first incubated in William’s E medium supplemented with 10% FBS (50% FBS from Eurobio and 50% FBS from GE Healthcare), 100 U/mL penicillin, 100 μg/mL streptomycin, 2 mM glutamine, 5 μg/mL insulin, and 50 μM hydrocortisone hemisuccinate. […] During this 1-month period, the culture medium was renewed three times a week. […] HepaRG cells were next cultured in the same FBS/DMSO conditions and incubated for 4 days with each drug at different concentrations. Culture medium was renewed every day and all investigations were performed after 96 h (i.e., 24 h after the fourth treatment). These investigations were mostly performed in 96-well plates except for western blot analysis, for which 6-well plates were used. Experiments were carried out on passages 9 to 16. All drugs (except DPEN), etomoxir, lomitapide, tunicamycin, thapsigargin, and TUDCA were dissolved in DMSO. DPEN was dissolved in water.
Cells were then incubated with PBS containing 0.1 μg/mL Nile red for 30 min and washed once. […] For each well, four pictures were taken at a magnification of × 20 and analyzed with Columbus software (PerkinElmer) for quantification. […] Examples of images used for neutral lipid quantification are shown in Supplementary Fig. 2.

The conditions of data set [1]: read-out: Maximum plasma concentration (Cmax) in patients, ref given per drug; cited from earlier work.
Data set [2] can be described thus: Maximum plasma concentration (Cmax) in patients. As to conditions: worked out from cited Cmax in patients.

Each structure is given as a SMILES string.

Regarding `COC(=O)C1=C(C)NC(C)=C(C(=O)OC)C1c1ccccc1[N+](=O)[O-]` [NIF, nifedipine], the “Accumulation of neutral lipids (steatosis)” value in the data set on HepaRG cells (concentrations above 100 × Cmax (100 μM NIF, 5000 μM DPEN)) is recorded as “significant accumulation of neutral lipids”; in the data set on HepaRG cells (selected concentrations (ATP loss < 30%, not above 100 × Cmax), vs control) it was “did not induce steatosis”. In addition, in data set [1], the Cmax is at most 0.72 µM. Moreover, the “Concentration corresponding to 100xCmax” value in data set [2] was 72 µM.
